From PMC7819943, “Rice protein-binding microarrays: a tool to detect cis-acting elements near promoter regions in rice”
The list shows a part of the results.

Protein sequences, listed by entry. Tags and fused reporters are not part of them.
UniProt Q0JBA9, entry or part of it: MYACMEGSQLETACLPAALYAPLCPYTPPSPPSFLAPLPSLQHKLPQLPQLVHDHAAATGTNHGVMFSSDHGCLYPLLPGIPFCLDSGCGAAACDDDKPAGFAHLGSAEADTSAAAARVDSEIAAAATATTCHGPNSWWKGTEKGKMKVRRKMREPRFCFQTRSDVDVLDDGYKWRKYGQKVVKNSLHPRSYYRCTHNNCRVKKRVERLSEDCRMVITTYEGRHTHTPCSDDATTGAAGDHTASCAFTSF

Target: OsWRKY34 (Oryza sativa, UniProt Q0JBA9 1-250)
Experiment: protein-binding microarray (RPBM); PBS, 2% BSA, 51.3 ng/ul salmon testes DNA, 50 uM zinc acetate, 200 nM TF, 25 C, 1 h; high values mean tight binding
Conditions: protein: recombinant; tags: N-terminal polyhistidine and DsRed monomer fusion (pET32a); label: CyDye5-dUTP incorporated in the synthesized complementary strand; 3' TTTTT single-stranded linker to array surface; dsDNA, one strand shown
Summary of the method: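 Using Ni–NTA, transcription factors fused N-terminally to polyhistidine and DsRed were purified after expression in E. coli BL21-CodonPlus. These were incubated at 200 nM with a blocked, double-stranded custom Agilent array for 1 h at 25 °C in a buffer containing 50 µM zinc acetate, and the array was washed. The binding signal is per-feature fluorescence intensity (arbitrary units) on an Axon 4000B scanner.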

| Sequence | binding signal |
| --- | --- |
| CCACGCAATCCCGCTTCCAAACCGCGAAGGCGTAAATCCTCGGAGTCACCTAGTGCAG | 8130 fluorescence intensity (a.u.) |
| AATTGCGAGGCACCTCTCTTGTTCATCTGCTCTGCTGGGGCGGAGTCACCTAGTGCAG | 8540 fluorescence intensity (a.u.) |
| TTAATTTTTTTTCCTTATACATTTCCTTTCCTTTTTTTTACGGAGTCACCTAGTGCAG | 8270 fluorescence intensity (a.u.) |
| ATGGCACGAACACATTTTTTGTTTTTATAAGCGGTACAATCGGAGTCACCTAGTGCAG | 8540 fluorescence intensity (a.u.) |
| TTAGGGGTAGGCTAGAGATTGATTGGGGCTTATATGATAACGGAGTCACCTAGTGCAG | 19700 fluorescence intensity (a.u.) |
| TTGAACTGGCTTTGGCCGTTATATAGGGGTTGGTCTTCCACGGAGTCACCTAGTGCAG | 9020 fluorescence intensity (a.u.) |
| ACGGCCACCCGCATCAACTCTTCCACTCTCTCCATTCCTACGGAGTCACCTAGTGCAG | 8090 fluorescence intensity (a.u.) |
| CCTCTTCTGATGTGGTCACATTCTCGCGTGCTCATTTGCACGGAGTCACCTAGTGCAG | 8470 fluorescence intensity (a.u.) |
| ATGTGCTGGCTTTATATTTGTAGCAAACCAAATACAATCTCGGAGTCACCTAGTGCAG | 8510 fluorescence intensity (a.u.) |
| CTTTATGAGAACACACCTTCTAAGGTTCCAACCCATTTTACGGAGTCACCTAGTGCAG | 8330 fluorescence intensity (a.u.) |
| ATTTATATTTAATACTTGTGTGCGTGTGTATTCGATGTGACGGAGTCACCTAGTGCAG | 8290 fluorescence intensity (a.u.) |
| TCCCCATGCCATGCAAAATAAATATCCATATTACCGTTTCCGGAGTCACCTAGTGCAG | 8320 fluorescence intensity (a.u.) |
| TGTTTTCACTTTCCTCTTCAGTCTTCTTCCTTCTTTCGTTCGGAGTCACCTAGTGCAG | 9140 fluorescence intensity (a.u.) |
| GGATTTTGACTTTTTACTTGCACTGTTTGACTATTCGTCTCGGAGTCACCTAGTGCAG | 18600 fluorescence intensity (a.u.) |
| CTACTGTCATGCTTCCTTGTCACATTACTACATCGTCGTTCGGAGTCACCTAGTGCAG | 8730 fluorescence intensity (a.u.) |
| TATCCTATCCCTAATTAGATTGGGCTTTTTTCTTTTGTTTCGGAGTCACCTAGTGCAG | 11400 fluorescence intensity (a.u.) |
| CCACTCTGCACTCTTCTCTCATCCAAAACCCCAATTTCCCCGGAGTCACCTAGTGCAG | 9860 fluorescence intensity (a.u.) |
| ATGTTTGACACCGTTGATTTTTTAACACATGTTTGACCGTCGGAGTCACCTAGTGCAG | 9910 fluorescence intensity (a.u.) |
| ATCGTTGCTGGTGCTTGGCATGTTTTCTTTTGCATCATTTCGGAGTCACCTAGTGCAG | 10000 fluorescence intensity (a.u.) |
| CCTCTTAACTAGTGGATTGATTCCCGGTCTCTTATTATCCCGGAGTCACCTAGTGCAG | 8580 fluorescence intensity (a.u.) |
| CGGTTGTTCTGAGTTCGATTTTTTTTGGCCAGCGGTTGTTCGGAGTCACCTAGTGCAG | 13200 fluorescence intensity (a.u.) |

Reformatted bar-delimited: entries from further up
Sequence | binding signal
GGATTTTGACTTTTTACTTGCACTGTTTGACTATTCGTCTCGGAGTCACCTAGTGCAG | 18600 fluorescence intensity (a.u.)
ATCGTTGCTGGTGCTTGGCATGTTTTCTTTTGCATCATTTCGGAGTCACCTAGTGCAG | 10000 fluorescence intensity (a.u.)

Later entries.

| Sequence | binding signal |
| --- | --- |
| ATCGGGCCGAAACTCCATTCTTTCTTCCTTTTTGGCCCAACGGAGTCACCTAGTGCAG | 10200 fluorescence intensity (a.u.) |
| AACTATATATGCCTTTTTCAGTAGTACTATACCGCTGCGACGGAGTCACCTAGTGCAG | 8170 fluorescence intensity (a.u.) |
| TTCGATTTGTACCGACATGTTTCCGTCCATATTATTCTGTCGGAGTCACCTAGTGCAG | 12800 fluorescence intensity (a.u.) |
| ATGCGTCCAAATATACTGTCCCGTGGTTTATTCATCCAAACGGAGTCACCTAGTGCAG | 8040 fluorescence intensity (a.u.) |
| TACTTTCACTCTCACCTCACCATTTCTTCTTCTTCTTCCTCGGAGTCACCTAGTGCAG | 10100 fluorescence intensity (a.u.) |
| TTTTTTTCTTTCCGTATCTTTTTCTTTTTTTGGTTTTTTACGGAGTCACCTAGTGCAG | 8410 fluorescence intensity (a.u.) |
| CTCCTTTCGCCTCCTCATCCTCCTGCTTCCGAAATCCTCACGGAGTCACCTAGTGCAG | 8900 fluorescence intensity (a.u.) |
| GAGAGTTAGGGTTCGACGGCGGGGTTGTGGAATGGGGAATCGGAGTCACCTAGTGCAG | 8480 fluorescence intensity (a.u.) |
| TGATTTGATCTGTGTTGATTCGATTTGTGCTGAATTATTCCGGAGTCACCTAGTGCAG | 8080 fluorescence intensity (a.u.) |
| ATCTCCACGCCGACGCCCCGCTCCGCCATGGCCCGCGCGACGGAGTCACCTAGTGCAG | 12600 fluorescence intensity (a.u.) |
| TATAGTAGTATGGGTGGAGATTTATATTTTTCTCTCGATTCGGAGTCACCTAGTGCAG | 8940 fluorescence intensity (a.u.) |
| TCTGGTGACGCCTCCTGTCTCTCTTGTCGGCGTCTCTCTCCGGAGTCACCTAGTGCAG | 10700 fluorescence intensity (a.u.) |
| GTAATTCGTACTTTTTCCAAACTGTAATAGTGTCATACTACGGAGTCACCTAGTGCAG | 10300 fluorescence intensity (a.u.) |
| TGGGCCTCTTTCTTCCCACACTACTTTGGGCCATCCAAAACGGAGTCACCTAGTGCAG | 12100 fluorescence intensity (a.u.) |
| ATCGTCACCTCGTTTTGCTTGTCTACTTCGATCGCCGCCTCGGAGTCACCTAGTGCAG | 14800 fluorescence intensity (a.u.) |
| GATCCTCATTCGACTGTATCCTATCCTGTGCATTCGTGCCCGGAGTCACCTAGTGCAG | 9860 fluorescence intensity (a.u.) |
| TTCTCAGCTTGGCTTTACATGTTTTCTTGCCACTAACCAGCGGAGTCACCTAGTGCAG | 11200 fluorescence intensity (a.u.) |
| TGGCTGGATGGGACTCTATATACATATGTCGATAAAAAGACGGAGTCACCTAGTGCAG | 10200 fluorescence intensity (a.u.) |
| GTTCAGAAGTATTATCAACATGACTTTGATTTGTCGTTACCGGAGTCACCTAGTGCAG | 8420 fluorescence intensity (a.u.) |
| TCTCACTCTCTCACACACACACTCTCTCTCTCTGCTAGCTCGGAGTCACCTAGTGCAG | 9820 fluorescence intensity (a.u.) |
| GTTGGCAGGCAGGCATGTTGCTCGATCGATCCTTTTGTTTCGGAGTCACCTAGTGCAG | 8810 fluorescence intensity (a.u.) |

Reprinted at random: 2 entries already listed.

| Sequence | binding signal |
| --- | --- |
| GATCCTCATTCGACTGTATCCTATCCTGTGCATTCGTGCCCGGAGTCACCTAGTGCAG | 9860 fluorescence intensity (a.u.) |
| TTTTTTTCTTTCCGTATCTTTTTCTTTTTTTGGTTTTTTACGGAGTCACCTAGTGCAG | 8410 fluorescence intensity (a.u.) |
